Only a part is listed here, and it is no random draw. The calls were merged from several studies; some rest on single wells. The list shows a part of the results.
What was measured:
Conditions in all cases: stereoisomer not certain
OR4F4 = test system: T1, OR4F4
T1 sequence (whole entry): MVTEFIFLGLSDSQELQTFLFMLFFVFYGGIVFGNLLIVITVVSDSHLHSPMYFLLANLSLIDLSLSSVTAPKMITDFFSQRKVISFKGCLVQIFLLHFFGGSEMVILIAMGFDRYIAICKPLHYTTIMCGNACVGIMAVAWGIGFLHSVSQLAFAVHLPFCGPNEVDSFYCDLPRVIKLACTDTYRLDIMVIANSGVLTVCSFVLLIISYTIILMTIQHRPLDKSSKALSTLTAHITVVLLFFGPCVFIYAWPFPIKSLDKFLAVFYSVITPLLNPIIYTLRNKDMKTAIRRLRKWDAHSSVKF
Outline: (§1)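 Whether a receptor–molecule pair is responsive (active) rests on the original authors' judgment that its measured signal was statistically different from baseline. Pairs without that judgment are non-responsive (inactive). Sources used varied assay methods, commonly transient luciferase assays in mammalian cell lines.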

OR4F6 (Homo sapiens) = molecular target: T2, OR4F6 (Homo sapiens) (UniProt Q8NGB9)
T2 sequence (whole entry): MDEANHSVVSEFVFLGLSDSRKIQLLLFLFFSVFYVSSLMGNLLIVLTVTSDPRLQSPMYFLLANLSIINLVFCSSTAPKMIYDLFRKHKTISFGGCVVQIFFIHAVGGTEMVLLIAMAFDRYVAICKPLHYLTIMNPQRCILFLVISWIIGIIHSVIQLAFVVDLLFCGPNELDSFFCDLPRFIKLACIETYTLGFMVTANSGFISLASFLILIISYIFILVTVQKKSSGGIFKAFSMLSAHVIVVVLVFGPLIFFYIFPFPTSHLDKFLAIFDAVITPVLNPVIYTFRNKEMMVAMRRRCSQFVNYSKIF
Outline: as §1

OR4K13 (Homo sapiens) = molecular target: T3, OR4K13 (Homo sapiens) (UniProt Q8NH42)
T3 sequence (whole entry): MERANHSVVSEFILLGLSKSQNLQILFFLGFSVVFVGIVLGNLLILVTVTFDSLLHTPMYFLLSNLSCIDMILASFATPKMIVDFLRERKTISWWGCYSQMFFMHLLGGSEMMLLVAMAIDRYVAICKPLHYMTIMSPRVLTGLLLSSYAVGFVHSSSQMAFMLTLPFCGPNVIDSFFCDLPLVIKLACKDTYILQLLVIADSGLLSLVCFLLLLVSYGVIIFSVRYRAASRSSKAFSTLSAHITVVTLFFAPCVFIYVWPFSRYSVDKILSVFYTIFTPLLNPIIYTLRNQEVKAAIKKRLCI
Outline: as §1

OR4K14 (Homo sapiens) = molecular target: T4, OR4K14 (Homo sapiens) (UniProt Q8NGD5)
T4 sequence (whole entry): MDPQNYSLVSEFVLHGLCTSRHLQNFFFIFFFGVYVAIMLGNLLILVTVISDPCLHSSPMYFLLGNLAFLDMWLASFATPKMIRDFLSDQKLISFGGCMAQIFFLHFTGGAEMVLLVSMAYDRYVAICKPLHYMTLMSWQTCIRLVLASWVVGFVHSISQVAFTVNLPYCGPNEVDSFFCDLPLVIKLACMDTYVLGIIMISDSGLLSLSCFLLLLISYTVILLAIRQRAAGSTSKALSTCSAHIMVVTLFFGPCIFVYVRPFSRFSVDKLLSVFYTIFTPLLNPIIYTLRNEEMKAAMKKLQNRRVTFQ
Outline: as §1

OR4K1 = test system: T5, OR4K1
T5 sequence (whole entry): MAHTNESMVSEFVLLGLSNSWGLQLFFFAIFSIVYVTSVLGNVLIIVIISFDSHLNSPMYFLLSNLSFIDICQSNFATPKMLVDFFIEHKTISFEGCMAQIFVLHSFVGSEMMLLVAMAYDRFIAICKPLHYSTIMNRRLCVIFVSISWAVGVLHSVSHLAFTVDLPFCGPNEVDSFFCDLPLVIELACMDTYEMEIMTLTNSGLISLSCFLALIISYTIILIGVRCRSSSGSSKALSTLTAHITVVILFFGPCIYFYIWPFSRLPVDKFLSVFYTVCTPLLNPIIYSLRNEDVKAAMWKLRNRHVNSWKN
Outline: as §1

OR4K2 (Homo sapiens) = molecular target: T6, OR4K2 (Homo sapiens) (UniProt Q8NGD2)
T6 sequence (whole entry): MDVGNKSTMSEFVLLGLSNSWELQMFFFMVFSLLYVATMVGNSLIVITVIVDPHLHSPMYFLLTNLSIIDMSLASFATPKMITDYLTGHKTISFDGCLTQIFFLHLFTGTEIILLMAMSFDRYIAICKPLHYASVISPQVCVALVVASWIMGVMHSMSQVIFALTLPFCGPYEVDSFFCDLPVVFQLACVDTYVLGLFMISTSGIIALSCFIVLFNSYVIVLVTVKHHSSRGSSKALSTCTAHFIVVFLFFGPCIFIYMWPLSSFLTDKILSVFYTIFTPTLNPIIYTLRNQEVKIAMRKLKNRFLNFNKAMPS
Outline: as §1

OR4K3 = test system: T7, OR4K3
T7 sequence (whole entry): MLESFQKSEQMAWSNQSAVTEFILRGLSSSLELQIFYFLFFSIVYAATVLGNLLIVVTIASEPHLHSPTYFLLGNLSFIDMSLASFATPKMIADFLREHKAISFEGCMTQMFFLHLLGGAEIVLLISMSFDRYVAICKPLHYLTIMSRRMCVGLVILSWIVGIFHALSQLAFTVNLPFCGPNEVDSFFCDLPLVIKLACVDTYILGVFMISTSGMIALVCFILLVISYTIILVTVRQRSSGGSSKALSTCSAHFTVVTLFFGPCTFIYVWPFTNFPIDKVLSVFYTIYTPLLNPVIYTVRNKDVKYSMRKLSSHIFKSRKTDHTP
Outline: as §1

OR4K5 (Homo sapiens) = molecular target: T8, OR4K5 (Homo sapiens) (UniProt Q8NGD3)
T8 sequence (whole entry): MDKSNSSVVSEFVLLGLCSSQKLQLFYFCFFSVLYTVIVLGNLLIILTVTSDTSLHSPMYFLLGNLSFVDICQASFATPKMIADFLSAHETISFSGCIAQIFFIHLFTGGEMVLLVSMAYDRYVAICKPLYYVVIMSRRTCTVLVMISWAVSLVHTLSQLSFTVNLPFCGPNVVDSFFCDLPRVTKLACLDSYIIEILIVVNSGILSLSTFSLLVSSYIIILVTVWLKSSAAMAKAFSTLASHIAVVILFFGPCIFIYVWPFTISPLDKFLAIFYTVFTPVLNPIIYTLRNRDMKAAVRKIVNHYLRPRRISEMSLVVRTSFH
Outline: as §1

OR4KF = test system: T9, OR4KF
T9 sequence (whole entry): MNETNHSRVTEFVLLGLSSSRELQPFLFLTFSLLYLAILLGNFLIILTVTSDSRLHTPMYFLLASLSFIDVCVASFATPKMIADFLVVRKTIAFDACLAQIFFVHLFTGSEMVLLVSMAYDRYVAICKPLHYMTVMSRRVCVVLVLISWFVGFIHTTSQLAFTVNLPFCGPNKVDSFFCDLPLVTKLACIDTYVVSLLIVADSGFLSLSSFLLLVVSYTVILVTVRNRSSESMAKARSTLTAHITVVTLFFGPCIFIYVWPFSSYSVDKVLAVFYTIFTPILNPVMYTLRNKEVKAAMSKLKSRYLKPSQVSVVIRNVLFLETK
Outline: as §1

OR4KH = test system: T10, OR4KH
T10 sequence (whole entry): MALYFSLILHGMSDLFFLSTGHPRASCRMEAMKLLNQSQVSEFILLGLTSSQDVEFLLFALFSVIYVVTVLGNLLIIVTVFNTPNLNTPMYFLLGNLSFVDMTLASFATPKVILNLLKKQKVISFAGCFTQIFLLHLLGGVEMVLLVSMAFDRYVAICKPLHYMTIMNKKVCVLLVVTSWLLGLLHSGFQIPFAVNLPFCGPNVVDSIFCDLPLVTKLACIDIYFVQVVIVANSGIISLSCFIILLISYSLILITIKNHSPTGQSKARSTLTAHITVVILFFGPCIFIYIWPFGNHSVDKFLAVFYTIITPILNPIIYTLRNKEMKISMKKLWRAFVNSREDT
Outline: as §1

Measured: odorant receptor agonist call;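 further: active if original authors judged signal statistically different from baseline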

CS
inactive: all assays above

Reference: the M2OR odorant receptor database
